The effect of the compound repeats well; differences between the knockouts mostly do not.
System: BT-20
Experiment: relative cell number vs DMSO control (72 h) (% of DMSO); higher = less growth inhibition (more cells)
Method: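 QMAP-Seq: a pool of 5 breast cancer cell lines (ZR-75-1, SKBR3, HCC-38, MDA-MB-231, BT-20), each carrying 12 doxycycline-inducible Cas9 sgRNA perturbations (11 knockouts plus non-targeting sgNT), was treated with compounds for 72 h at four 10-fold doses (10 nM-10 uM or 1 nM-1 uM range). Barcodes were amplified and sequenced, and cell number was interpolated from 293T spike-in standard curves. The result is expressed as % of the median of DMSO wells. Two biological replicates.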

CCOc1ccccc1-n1c(C(C)N2CCN(C(=O)COc3ccc(Cl)cc3)CC2)nc2ccccc2c1=O (configuration not stated) [Erastin]
Details | relative cell number
sgRNA knockout: sgATF3, 10 nM | 94.9
sgRNA knockout: sgATF3, 100 nM | 93.5
sgRNA knockout: sgATF3, 1000 nM | 86.3
sgRNA knockout: sgATF3, 10000 nM | 51
sgRNA knockout: sgATF4, 10 nM | 89.4
sgRNA knockout: sgATF4, 100 nM | 96.52
sgRNA knockout: sgATF4, 1000 nM | 83.7
sgRNA knockout: sgATF4, 10000 nM | 54.4
sgRNA knockout: sgATF6, 10 nM | 89
sgRNA knockout: sgATF6, 100 nM | 97.5
sgRNA knockout: sgATF6, 1000 nM | 87
sgRNA knockout: sgATF6, 10000 nM | 53.4
sgRNA knockout: sgATG7, 10 nM | 99.6
sgRNA knockout: sgATG7, 100 nM | 94.3
sgRNA knockout: sgATG7, 1000 nM | 90.9
sgRNA knockout: sgATG7, 10000 nM | 62.1
sgRNA knockout: sgERN1, 10 nM | 90.9
sgRNA knockout: sgERN1, 100 nM | 95.2
sgRNA knockout: sgERN1, 1000 nM | 90.3
sgRNA knockout: sgERN1, 10000 nM | 55.43
sgRNA knockout: sgHSF1, 10 nM | 96.3
sgRNA knockout: sgHSF1, 100 nM | 111
sgRNA knockout: sgHSF1, 1000 nM | 93.1
sgRNA knockout: sgHSF1, 10000 nM | 51.9
sgRNA knockout: sgHSF2, 10 nM | 89.9
sgRNA knockout: sgHSF2, 100 nM | 92.1
sgRNA knockout: sgHSF2, 1000 nM | 83.8
sgRNA knockout: sgHSF2, 10000 nM | 48.3
sgRNA knockout: sgKEAP1, 10 nM | 95.3
sgRNA knockout: sgKEAP1, 100 nM | 102
sgRNA knockout: sgKEAP1, 1000 nM | 97.9
sgRNA knockout: sgKEAP1, 10000 nM | 69.6
sgRNA knockout: sgNFE2L2, 10 nM | 92.4
sgRNA knockout: sgNFE2L2, 100 nM | 106
sgRNA knockout: sgNFE2L2, 1000 nM | 79.7
sgRNA knockout: sgNFE2L2, 10000 nM | 50.47
sgRNA knockout: sgSLC35F2, 10 nM | 88.6
sgRNA knockout: sgSLC35F2, 100 nM | 90.4
sgRNA knockout: sgSLC35F2, 1000 nM | 89.4
sgRNA knockout: sgSLC35F2, 10000 nM | 52
sgRNA knockout: sgXBP1, 10 nM | 96.2
sgRNA knockout: sgXBP1, 100 nM | 90.9
sgRNA knockout: sgXBP1, 1000 nM | 88.4
sgRNA knockout: sgXBP1, 10000 nM | 59.7

C=C1C[C@@H]2[C@H](CC[C@]3(C)C(=O)CC[C@@H]23)[C@@]2(C)C=CC(=O)C=C12 [Exemestane]
Details | relative cell number
sgRNA knockout: sgATF3, 10 nM | 95.6
sgRNA knockout: sgATF3, 100 nM | 88.25
sgRNA knockout: sgATF3, 1000 nM | 115
sgRNA knockout: sgATF3, 10000 nM | 96
sgRNA knockout: sgATF4, 10 nM | 111
sgRNA knockout: sgATF4, 100 nM | 99.6
sgRNA knockout: sgATF4, 1000 nM | 108
sgRNA knockout: sgATF4, 10000 nM | 108
sgRNA knockout: sgATF6, 10 nM | 94
sgRNA knockout: sgATF6, 100 nM | 82.9
sgRNA knockout: sgATF6, 1000 nM | 84.3
sgRNA knockout: sgATF6, 10000 nM | 103
sgRNA knockout: sgATG7, 10 nM | 105
sgRNA knockout: sgATG7, 100 nM | 87.1
sgRNA knockout: sgATG7, 1000 nM | 100
sgRNA knockout: sgATG7, 10000 nM | 105
sgRNA knockout: sgERN1, 10 nM | 103
sgRNA knockout: sgERN1, 100 nM | 84.3
sgRNA knockout: sgERN1, 1000 nM | 105
sgRNA knockout: sgERN1, 10000 nM | 109
sgRNA knockout: sgHSF1, 10 nM | 107
sgRNA knockout: sgHSF1, 100 nM | 72.9
sgRNA knockout: sgHSF1, 1000 nM | 126
sgRNA knockout: sgHSF1, 10000 nM | 102
sgRNA knockout: sgHSF2, 10 nM | 96.5
sgRNA knockout: sgHSF2, 100 nM | 89.4
sgRNA knockout: sgHSF2, 1000 nM | 109
sgRNA knockout: sgHSF2, 10000 nM | 109
sgRNA knockout: sgKEAP1, 10 nM | 103
sgRNA knockout: sgKEAP1, 100 nM | 87.6
sgRNA knockout: sgKEAP1, 1000 nM | 102
sgRNA knockout: sgKEAP1, 10000 nM | 95.09
sgRNA knockout: sgNFE2L2, 10 nM | 116
sgRNA knockout: sgNFE2L2, 100 nM | 83.9
sgRNA knockout: sgNFE2L2, 1000 nM | 123
sgRNA knockout: sgNFE2L2, 10000 nM | 102
sgRNA knockout: sgSLC35F2, 10 nM | 93
sgRNA knockout: sgSLC35F2, 100 nM | 89.8
sgRNA knockout: sgSLC35F2, 1000 nM | 91.6
sgRNA knockout: sgSLC35F2, 10000 nM | 96.4
sgRNA knockout: sgXBP1, 10 nM | 115
sgRNA knockout: sgXBP1, 100 nM | 89.9
sgRNA knockout: sgXBP1, 1000 nM | 113
sgRNA knockout: sgXBP1, 10000 nM | 119

CC(C)(C)OC(=O)CN(Cc1ccc(Cl)cc1)Cc1ccc([N+](=O)[O-])s1 [GSK4112]
Details | relative cell number
sgRNA knockout: sgATF3, 10 nM | 85.2
sgRNA knockout: sgATF3, 100 nM | 108.8
sgRNA knockout: sgATF3, 1000 nM | 96.3
sgRNA knockout: sgATF3, 10000 nM | 105
sgRNA knockout: sgATF4, 10 nM | 83.2
sgRNA knockout: sgATF4, 100 nM | 118
sgRNA knockout: sgATF4, 1000 nM | 104
sgRNA knockout: sgATF4, 10000 nM | 105
sgRNA knockout: sgATF6, 10 nM | 88.2
sgRNA knockout: sgATF6, 100 nM | 106
sgRNA knockout: sgATF6, 1000 nM | 92.3
sgRNA knockout: sgATF6, 10000 nM | 95.6
sgRNA knockout: sgATG7, 10 nM | 82.2
sgRNA knockout: sgATG7, 100 nM | 114
sgRNA knockout: sgATG7, 1000 nM | 106.8
sgRNA knockout: sgATG7, 10000 nM | 104
sgRNA knockout: sgERN1, 10 nM | 84.2
sgRNA knockout: sgERN1, 100 nM | 101
sgRNA knockout: sgERN1, 1000 nM | 102
sgRNA knockout: sgERN1, 10000 nM | 97.1
sgRNA knockout: sgHSF1, 10 nM | 99.1
sgRNA knockout: sgHSF1, 100 nM | 95.4
sgRNA knockout: sgHSF1, 1000 nM | 93.39
sgRNA knockout: sgHSF1, 10000 nM | 96.5
sgRNA knockout: sgHSF2, 10 nM | 94.7
sgRNA knockout: sgHSF2, 100 nM | 110
sgRNA knockout: sgHSF2, 1000 nM | 98
sgRNA knockout: sgHSF2, 10000 nM | 116
sgRNA knockout: sgKEAP1, 10 nM | 84
sgRNA knockout: sgKEAP1, 100 nM | 100
sgRNA knockout: sgKEAP1, 1000 nM | 94.3
sgRNA knockout: sgKEAP1, 10000 nM | 94.9
sgRNA knockout: sgNFE2L2, 10 nM | 100
sgRNA knockout: sgNFE2L2, 100 nM | 133
sgRNA knockout: sgNFE2L2, 1000 nM | 90.3
sgRNA knockout: sgNFE2L2, 10000 nM | 109
sgRNA knockout: sgSLC35F2, 10 nM | 95.8
sgRNA knockout: sgSLC35F2, 100 nM | 105
sgRNA knockout: sgSLC35F2, 1000 nM | 91.5
sgRNA knockout: sgSLC35F2, 10000 nM | 107
sgRNA knockout: sgXBP1, 10 nM | 88.1
sgRNA knockout: sgXBP1, 100 nM | 116
sgRNA knockout: sgXBP1, 1000 nM | 88.8
sgRNA knockout: sgXBP1, 10000 nM | 111

Source: the supplement of paper PMC7661543
